Measurements from US7288567B2, “Inhibitors of histone deacetylase” (Methylgene Inc., priority 2000, dated 2007).
At least one compound was matched to its structure with a doubt left.

System: histone deacetylase enzyme in nuclear extracts from H446 cells (pooled HDACs)
Assay: Histone deacetylase inhibition, H446 nuclear extracts (pooled HDACs)
Type: biochemical, human
Conditions: H446 nuclear extract, [3H]-acetylated histone substrate
Experimental: HDAC inhibitors were screened against histone deacetylase enzyme in nuclear extracts prepared from the human small cell lung cancer cell line H446 (ATTC HTB-171) and against a cloned recombinant human HDAC-1 enzyme expressed and purified from a Baculovirus insect cell expression system.
For deacetylase assays, 20,000 cpm of the [^3H]-metabolically labeled acetylated histone substrate (M. Yoshida et al., J. Biol. Chem. 265(28): 17174-17179 (1990)) was incubated with 30 μg of H446 nuclear extract or an equivalent amount of the cloned recombinant hHDAC-1 for 10 minutes at 37° C. The reaction was stopped by adding acetic acid (0.04 M, final concentration) and HCl (250 mM, final concentration). The mixture was extracted with ethyl acetate and the released [^3H]-acetic acid was quantified by scintillation counting. For inhibition studies, the enzyme was preincubated with compounds at 4° C. for 30 minutes prior to initiation of the enzymatic assay. IC50 values for HDAC enzyme inhibitors were determined by performing dose response curves with individual compounds and determining the concentration of inhibitor producing fifty percent of the maximal inhibition.

Compound `COc1ccc(C(C/C=C/C=C/C(=O)Nc2ccccn2)OC)cc1` (stereo not shown) [Compound 21, N-(2-Aminopyridinyl)-7-methoxy-7-(4-methoxyphenyl)-2,4-heptadienamide] has an IC50 of over 100 µM.
